These are yes or no findings as the source states them, for the method shown. Tags and fused reporters may be left off the sequences shown.
What was measured:
[1] = target: titin single domain A169 (human); experiment: far-Western, overlay or dot blot; filter-binding assay: purified titin constructs spotted (approx. 1 µg; A169-TK in 10-fold lower quantity) on nitrocellulose, blocked with TBST/5% milk, incubated 3 h with biotinylated MuRF1-coiled-coil at 0.5 µg/ml in TBST/1% milk; detection with streptavidin-alkaline phosphatase and NBT/BCIP; both purified
[2] = target: titin A168–A170^ΔKTLE (human); experiment: as above

B1: His6-MuRF1-coiled-coil (aa169–263) (domain or fragment, UniProt Q969Q1 169-263)
chain: ELNNCISMLVAGNDRVQTIITQLEDSRRVTKENSHQVKEELSQKFDTLYAILDEKKSELLQRITQEQEKKLSFIEALIQQYQEQLDKSTKLVETA
modifications: biotinylated with NHS-PEG4-Biotin
Q: For B1, which binding [1] is on record?
A: The binding was “no binding (tested: 0.5 µg ml^−1 MuRF1-coiled-coil)”.

Q: And the binding [2]?
A: The binding was “no binding (tested: 0.5 µg ml^−1 MuRF1-coiled-coil)”.
